Laboratory results published in patent US20170152308A1.
These are yes or no findings as the source states them, for the method shown. Some results given as binding are weak or reduced against the parent protein; the word gives no strength.

The chains behind the UniProt entries cited, without tags or fusion partners.
UniProt Q13148: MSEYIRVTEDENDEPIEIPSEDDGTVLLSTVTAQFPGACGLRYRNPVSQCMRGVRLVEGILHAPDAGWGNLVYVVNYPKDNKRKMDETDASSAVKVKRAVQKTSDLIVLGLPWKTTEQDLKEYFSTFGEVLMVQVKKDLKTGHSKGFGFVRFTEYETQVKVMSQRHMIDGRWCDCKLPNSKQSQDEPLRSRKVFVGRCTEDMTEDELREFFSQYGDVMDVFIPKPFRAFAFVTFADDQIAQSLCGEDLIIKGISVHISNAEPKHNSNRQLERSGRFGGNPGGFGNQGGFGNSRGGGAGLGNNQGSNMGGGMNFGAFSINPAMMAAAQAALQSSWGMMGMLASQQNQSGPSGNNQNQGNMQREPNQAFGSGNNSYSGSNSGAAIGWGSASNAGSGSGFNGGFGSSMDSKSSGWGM

Key:
[1] = molecular target: TDP-43 in human FTLD-U (and ALS) patient tissue sections (human) (UniProt Q13148); experiment: immunohistochemistry, FTLD-U case hippocampus
[2] = molecular target: recombinant full-length His-tagged human TDP-43 (2-414) (human) (UniProt Q13148); experiment: Western blot
[3] = molecular target: recombinant full-length His-tagged human TDP-43 (2-414) (human) (UniProt Q13148); experiment: direct ELISA, coated antigen
[4] = molecular target: recombinant full-length His-tagged human TDP-43 (2-414) (human) (UniProt Q13148); experiment: direct ELISA, coated recombinant full length TDP-43
[5] = molecular target: TDP-43 in human FTLD-U (and ALS) patient tissue sections (human) (UniProt Q13148); experiment: immunohistochemistry, patient tissue sections

binding [1] | binding [2] | binding [3] | binding [4] | binding [5] | Binder
binds |  |  |  |  | NI-205.8F8 (antibody, human IgG1, V domains shown) VH: EVQLLESGGGLVQPGGSLRLSCAASGYTFSYYAMSWVRQAPGKGLEWVSTIGDSGSTTHYADSVKGRFTISRDNSKSTLYLQMNSLRAEDTAVYYCAKGLGPVAAIGDYWGQGTLVTVSS VL: QSVLTQPPSASGTPGQRVTISCSGSSSNIGSNNVYWYQQLPGTAPKLLVYRNNQRPSGVPDRVSGSKSGSSASLAISGLRSEDEADYYCAAWDDSLRGYVFGTGTKVTVL
 | binds | binds | binds |  | NI-205.87E7 (antibody, human IgG1, V domains shown) VH: EVQLLESGGGLVQPGGSLRLSCAASGFTFSSYAMSWVRQAPGKGLEWVSAISGGGDRTYSADSVKGRFTISRDNSKNTLYLQINSLRVEDTAVYYCAQGGGGEMTAVTMDGTYYGMDVWGQGTTVTVSS VL: QSALTQPRSVSGSPGQSITISCTGTSSNVGTYKFVSWYQQHPGKAPKLMIYDVTKRPSGVPDRFSGSKSGNTASLTISGLQAEDEADYYCCSYAGSYTYVFGSGTKVTVL
 | binds | binds |  |  | NI-205.44B2 (antibody, human IgG1, V domains shown) VH: QVQLQESGPGVVKPSQTLSLTCTVSGVSVGSGDYYWSWIRHHPGKGLEWIGYISFFGSSNYNPSLKGRVSMSVDTSNNQFSLNLKSVTAADTAVYFCATGNAYSFWGQGTMVTVSS VL: QSALTQPASVSGSPGQSITISCTGTSSDIGTHNLVSWYQQHPGKAPKLIIYEIFERPSGISSRFTGSKSGNTASLTISGLQAEDEADYFCCAYSVTVIFGGGTKLTVL
binds |  |  |  |  | NI-205.14H5 (antibody, human IgG1, V domains shown) VH: EVQLLESGGGLVQPGGSLRLSCAASGFTFRNYAMAWVRQAPGKGLEWVSAIPARGDKTYYADSVRGRFTISRDISKSALYLQMNSLRVEDTAVYYCAKAHHLYNKNFDYWGQGTLVTVSS VL: EIVLTQSPGTLSLSPGETVTLSCRASQSVSSSNLAWYQQKPGQAPRLLIYGASSRATGIPDRFSGRGSGTDFTLTISRLEPEDFAVYYCQHYGTFGQGTKVDIK
binds | binds | binds | binds |  | NI-205.15F12 (antibody, human IgG1, V domains shown) VH: QVQLVQSGTAVKKPGASVKVSCKASGFSFNGYYMHWVRQAPGQGLEWMGVINPNGGSTNYAQKFKGRITMSADTPARSVSMELGSLRSDDTAMYYCARLPVNIEVLDLWGQGTLVTVSS VL: DIVMTQSPDSLAVSLGERATINCRSSQTVLFSSNDKNYLAWYQQKPGQPPKLLIYWASVRASGVPDRFSGSGSGTDFSLTINGLQAEDVAVYYCQQSSTAPLTFGGGTKVEIK
 | binds | binds |  |  | NI-205.1A9 (antibody, human IgG1, V domains shown) VH: QVQLVQSGSELKKPGASVKVSCKASGYTFTSYAMNWVRQAPGQGLEWMGWINTNTGNPTYAQGFTGRFVFSLDTSVSTAYLQISSLKAEDTAVYYCARDRIDGSSWSSWFDPWGQGTLVTVSS VL: QSVLTQPPSVSGAPGQRVTISCTGSSSNIGAGYDVHWYQQLPGTAPKLLIYGNSNRPSGVPDRFSGSKSGTSASLAITGLQAEDEADYYCQSFDSSLSSSVFGGGTKLTVL
 | binds | binds |  |  | NI-205.51C1 (antibody, human IgG1, V domains shown) VH: EVQLVESGGGLVQPGGSLRISCTTSGFIFSDYWMHWVRQAPGKGLTWVSRINLDGSDTIYADSVKGRFTISRDNDKNTLYLQMNSLRVEDTAIYYCARSRKSVWGQGTMVTVSS VL: QSALTQPASVSGSPGQSITISCTGSNTDVGAYDYVSWSQQLPGKAPKFVIFDVDVRPSGISDRFSGSKSGNTASLTISGLQAEDEADYYCSSYTKSGTLVFGGGTKVTVV
 | binds | binds |  |  | NI-205.21G1 (antibody, human IgG1, V domains shown) VH: QVQLVESGGGVVQPGMSLRLSCAASGFSFSSHGMHWVRQTPGKGLEWLAVISYDASNKSYADSVKGRFTISRDNSKKTLYLQMDSLRVEDTALYYCANAFSSSASGGYWGQGTLVTVSS VL: DVVMTQSPLSLPVTLGQPASISCRSSQSLVHSDGVTYLNWFQQRPGQSPRRLIYKVSNRDSGVPDRFSGSGSGTDFTLEISRVEAEDVGIYYCMQGTHWPPWTFGQGTKVEIK
binds | binds | binds |  |  | NI-205.31C11 (antibody, human IgG1, V domains shown) VH: QVQLVESGGGVVQPGRSLRLSCVASGFTFDNYGMHWVRQAPGKGLEWLAVISYGGDHQFYGDSVKDRFTISRDNSKNTAYLQMHSLRPDDTAVYYCATGVTPDFWGQGTLVTVSS VL: DVVMTQSPLSLPVTLGQPASISCRSSQSLVHSDGNTYLNWFQQRPGQSPRRLIYKVSHRDSGVPDRFSGSGSGTDFTLKISRVEAEDVGVYYCLQGTHWPPFTFGQGTKLEIK
binds | binds | binds | binds | binds | NI-205.8A2 (antibody, human IgG1, V domains shown) VH: QVQLVESGGGVVQPGKSLRLSCAASGFTFRDHGMHWVRQAPGKGLEWVAVIWLDGSSRFYADSVEGRFTISRDNSKNTLYLQLTSLRAEDTAIYYCARDRVASEGTAFDVWGQGTMVTVSS VL: EIVLTQSPATLSLSPGERATLSCWASQNVNHYLVWYQQRPGQAPRLLLYDTSVRAAGIPARFIGSGSGTHFTLTISSLEPEDSAVYYCQHRSDWTFGQGTKVEIK
binds | binds | binds |  | binds | NI-205.21G2 (antibody, human IgG1, V domains shown) VH: QVQLVQSGAEVKKPGASVKVSCKTSGYSFTSYTLHWVRQAPGHRPEWMGWINAAFINTKYSQKFQGRITLTRDTSANIAYLELRSLTTEDTAVYYCARRASGSNGLDVWGQGTTVTVSS VL: DIQMTQSPSSLSASVGDRITITCQASRDITNYLNWYQQKPGKAPKLLIYDASYLETGVPSTFSGSGSGTHFTLTISSLQPDDFATYYCQQYDSVPLTFGGGTKVEIK
 | binds | binds |  |  | NI-205.29E11 (antibody, human IgG1, V domains shown) VH: QVQLVQSGAEVKKPGASVKVSCKASGYIFTDYFIHWIRQAPGQGLEWMGWIKPKSGGTDYAEKFQGRVTLTRDTSITTVYMELSRLNSDDTAVYYCARLKYSVPDSDYWGQGTLVTVSS VL: DVVMTQSPLSLPVTLGQSASISCRSSQGLVHSDGNTYLNWFHQRPGQSPRRLIYKVFNRDSGVSDRFSGSGSGSDFTLMISRVEAEDVGIYYCMQGTLWPLTFGQGTKVEIK
binds | binds | binds |  |  | NI-205.10H7 (antibody, human IgG1, V domains shown) VH: QVQLVESGGGVVQPGRSLRLSCAASGFTFSNYAMHWVRQAPGKGLEWVAVIWYDGSKKYYGDSVKGRFTISRDNPKNTLYLQMNSLRVEDTAIYYCVPDAFDMWGQGTMVTVSS VL: DIVMTQTPLSSPVTLGQPASISCRSSQSLVHTDGKTYLSWLHQRPGQPPRPLIYKMSKRFSGVPDRFSGSGAETEFTLKISRVEAEDVGIYYCLQLTQFPITFGQGTRLEIK
binds |  |  |  |  | NI-205.36D5 (antibody, human IgG1, V domains shown) VH: QVQLVESGGGVVQPGRSLRLSCAASRFTFSSYGMHWVRQAPGKGLEWVALIYYDATQKYYADSVKGRFTISRDNSKNALYLQMTSLRADDTAVYYCARDLPYHYHRSASFAPADTWGQGTLVTVSS VL: EIVLTQSPGTLSLSPGERATLSCRASQTISNNYLAWYQQKPGQAPRLLVYAASSRATGIPDRFYGSGSGADFTLTISRLEPEDFVVYYCQQYGSSPITFGQGTRLEIK
 | binds | binds | binds |  | NI-205.25F3 (antibody, human IgG1, V domains shown) VH: QVQLVESGGGVVQPGRSLRLSCAASGFTFSNYVMYWVRQAPGKGLEWVAFISYDGSNKYYPDSVKGRFTISRDNSMNTLYLQMDSLRAEDTAVYYCARDTYQYDSSTYYPYFYYYGMDVWGQGTTVTVSS VL: QSALTQPASVSGSPGQSITISCIGTSSDVGGYNYVSWYQQHPGKAPKLMIYEVSNRPSGVSSRFSGSKSGNTASLTISGLQSEDEADYYCSSFASSSTSVTFGGGTKLTVL
 | binds | binds |  |  | NI-205.38H2 (antibody, human IgG1, V domains shown) VH: EVQLVESGGDLVQPGGSLRLSCTASGFNLGDYWMHWVRQVPGKGLVWVSRISSDGASVSYADFVEGRFTISRGNARNTLFLELNSLRLDDTAVYYCAMGVVWGQGTLVTVSS VL: SYELTQPPSVSVSPGQTATISCSGDALPKRYAYWYKQKSGQVPVLIIYEDNKRPSGIPARFSGSSSGTMATLTITGAQVDDEADYYCYSSDNSDTYSVFGGGTKLTVL
 | binds | binds | binds |  | NI-205.113C4 (antibody, human IgG1, V domains shown) VH: QVQLVQSGAEVKKPGASVKVSCKASGYTFTNYYMHWVRQAPGQGLEWMGIINPSGGRTSYAQKFQGRASMTRDTSTSTVYMEVISLRSEDTAVYYCARQRPSGYSGYGPSESYGNPTDDAFDVWGQGTTVTVSS VL: SYVLTQPPSVSVAPGQTARITCGGNNIGSRGVHWYQQRPGQAPVLVVYDDSDRPSGIPERFSGSNSGDTATLTISRVEVGDEADYYCQVWDNSSDHLVVFGGGTKLTVL
binds | binds | binds | binds | binds | NI-205.3F10 (antibody, human IgG1, V domains shown) VH: EVQLLESGGDLVQPGGSLRLSCAASGFTFSSQAMSWVRQAPGKGLEWVSALSRTGDYTWYADSVRGRFTVSRDDSKNIFYLEMNSLRAEDTAVYYCAKNYYSSFGYNWAAFHIWGQGTMVTVSS VL: EIVLTQSPGTLSLSPGERATLSCRASQDVNNNYLAWYQQKPGQAPRLLIYGASRRATGVPDRFSGRGSGTDFTLTINRLEPEDFAMYFCQQYGGSPPYTFGQGTKLEIK
